From paper PMC7915940 (Molecules, 2021)

assay: general procedure: Fmoc solid-phase peptide synthesis; Rink-amide MBHA resin; HBTU/HOBt/DIEA or DIC/DMAP; settings: whole synthesis, Shimadzu LC MS/MS 8045

| Substance | purity (crude or final not stated) [%] |
| --- | --- |
| 1,8-naphthalimideG-KLAKLAK-NH2 | 98.07 |
| (KLAKLAK)2-NH2 | 100.00 |
| Caf-KLAKLAK-NH2 | 82.37 |
| Caf-KLβAKLβAK-NH2 | 82.17 |
| Caf-KnLAKnLAK-NH2 | 100.00 |
| KLAKLAK-NH2 | 100.00 |
